Measurements published in patent US20260265393A1.
Results are given in words; binding and its absence hold for the method and conditions named. Some binding calls cover weakened binding; strength is not graded here.

By UniProt entry, the sequences of proteins in these tests, tags left out. Residues count along the entry.
UniProt P26842, residues 21-192: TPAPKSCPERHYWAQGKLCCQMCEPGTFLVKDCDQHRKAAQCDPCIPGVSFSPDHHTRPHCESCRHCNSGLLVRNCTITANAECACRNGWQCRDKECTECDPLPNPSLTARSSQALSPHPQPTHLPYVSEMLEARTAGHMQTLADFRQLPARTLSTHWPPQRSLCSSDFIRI

Columns and labels:
[1] = target: antigen CD27 (soluble, as used in the BLI and SPR experiments) (UniProt P26842); experiment: BLI epitope binning
[2] = target: antigen CD27 (soluble, as used in the BLI and SPR experiments) (UniProt P26842); experiment: BLI, antibody captured on the probe, then antigen CD27 (Example 4.1)
[3] = target: CD27-mFc (Kangdai) (human) (UniProt P26842); experiment: ELISA on coated CD27-mFc, method of Example 3.1 (Example 9.1)
[4] = target: CD27-mFc (Kangdai) (human) (UniProt P26842); experiment: ELISA on coated CD27-mFc (1 ug/mL), anti-human IgG Fc detection (Example 3.1)
[5] = target: CD27-mFc (Kangdai) (human) (UniProt P26842); experiment: competition ELISA: coated CD70 (1 ug/mL), CD27-mFc fixed at 4.3 ug/mL plus antibody dilution, HRP anti-mouse Fc detection; blocked ligand CD70 (Example 3.5)
[6] = target: CD27-mFc (Kangdai) (human) (UniProt P26842); experiment: competition ELISA: coated CD70, fixed CD27-mFc plus antibody dilution, method of Example 3.5 (Example 10); blocked ligand CD70; x axis printed -0.5 to 1.0 under the label Ab Con.ug/mL
[7] = target: CD27-mFc (Kangdai) (human) (UniProt P26842); experiment: ELISA: 13B3-hFc coated, CD27-mFc 0.8 µg/mL with 1F5 dilutions
[8] = target: CD27-mFc (Kangdai) (human) (UniProt P26842); experiment: ELISA on coated CD27-mFc
[9] = target: antigen CD27 (soluble, as used in the BLI and SPR experiments) (UniProt P26842); experiment: BLI epitope binning, CD27 held by 13B3 on the probe
[10] = target: CD27-mFc (Kangdai) (human) (UniProt P26842); experiment: hybridoma screening ELISA
[11] = target: CD27-mFc (Kangdai) (human) (UniProt P26842); experiment: ELISA, hybridoma supernatant on coated CD27-mFc

Measured: binding

B1: 13B3-hFc human-mouse chimeric CD27 monoclonal antibody (antibody, V domains shown)
VH: QVQLQQSGPEQVKPGASVKISCKTSGYAFSQSWMNWVKQRPGQGLEWIGRIYPGDGDTNYNGIFKGKATLTADKSSSTAYMQLSSLTSLDSAVYFCASMIRTTYVMDHWGQGTSVTVTS
VL: DIVLTQSPATLSVTPGDSVSLSCRASQSVSNSLHWYQQKSHESPRLLIMYTSQSISGIPSRFSGSGSGTDFTLSINSVETEDFGMYFCQQSNSWPLTFGAGTKLELK
not listed: [9] | [10] | [11]
binds: all other assays above

B2: 17H8-hFc human-mouse chimeric CD27 monoclonal antibody (antibody, V domains shown)
VH: EVKLEESGGGLVQPGGSMKLSCVASGFTFSNYWMNWVRQSPEKGLEWVAEIRLKSNNYATYYAESVKGRFTISRDDSKSSVYLQMNSLRGEDTGIYYCTLYDSSYYYAMDYWGQGTSVTVSS
VL: DVVLTQTPLSLPVNIGDQASISCKSTQSLLHSDGFTYLDWYLQKPGQSPQLLIYLVSNRFLGVPDRFSGSGSRTDFTLKISRVEAEDLGVYYCFQSNYLPLTFGGGTKLEI
binds: [9] | [2] | [4] | [8]

B3: 13B3-huH4L1 (P33425) humanized CD27 monoclonal antibody (antibody, V domains shown)
VH: QVQLVQSGAEVKKPGASVKVSCKTSGYAFSQSWMNWVRQAPGQGLEWMGRIYPGDGDTNYAQKFQGRVTMTADTSISTAYMELSRLRSDDTAVYYCASMIRTTYVMDHWGQGTTVTVSS
VL: EIVLTQSPDFLSVTPKEKVTLTCRASQSVSNSLHWYQQKPDQSPKLLIMYTSQSISGIPSRFSGSGSGTDFTLTINSVEAEDAATYYCQQSNSWPLTFGGGTKLELK
binds: [3] | [8]

B4: 13B3-huH2L2 (P33426) humanized CD27 monoclonal antibody (antibody, V domains shown)
VH: QVQLVQSGAEVKKPGASVKVSCKTSGYAFSQSWMNWVRQAPGQGLEWIGRIYPGDGDTNYNGIFKGRVTLTADKSSSTAYMELSRLRSDDTAVYYCASMIRTTYVMDHWGQGTTVTVSS
VL: IVLTQSPDFQSVTPKEKVTITCRASQSVSNSLHWYQQKPDQSPKLLIMYTSQSISGVPSRFSGSGSGTDFTLTINSLEAEDAATYYCQQSNSWPLTFGGGTKLELK
binds: [3] | [6] | [8]

B5: 13B3-huH3L4 (P33434) humanized CD27 monoclonal antibody (antibody, V domains shown)
VH: QVQLVQSGAEVKKPGASVKVSCKTSGYAFSQSWMNWVRQAPGQGLEWIGRIYPGDGDTNYNGIFQGRVTLTADTSISTAYMELSRLRSDDTAVYYCASMIRTTYVMDHWGQGTTVTVSS
VL: EIVLTQSPATLSLSPGERATLSCRASQSVSNSLHWYQQKPGQAPRLLIMYTSQSISGIPARFSGSGSGTDFTLTISSLEPEDFAVYYCQQSNSWPLTFGGGTKLELK
binds: [3] | [6] | [8]

B6: 13B3-huH4L3 (P33432) humanized CD27 monoclonal antibody (antibody, V domains shown)
VH: QVQLVQSGAEVKKPGASVKVSCKTSGYAFSQSWMNWVRQAPGQGLEWMGRIYPGDGDTNYAQKFQGRVTMTADTSISTAYMELSRLRSDDTAVYYCASMIRTTYVMDHWGQGTTVTVSS
VL: DIVLTQSPATLSVSPGERVTLSCRASQSVSNSLHWYQQKPGQAPRLLIMYTSQSISGIPARFSGSGSGTDFTLTISSVEPEDFAVYYCQQSNSWPLTFGGGTKLELK
binds: [6]

B7: 13B3 anti-human CD27 mouse monoclonal antibody (hybridoma clone) (antibody, V domains shown)
VH: QVQLQQSGPEQVKPGASVKISCKTSGYAFSQSWMNWVKQRPGQGLEWIGRIYPGDGDTNYNGIFKGKATLTADKSSSTAYMQLSSLTSLDSAVYFCASMIRTTYVMDHWGQGTSVTVTS
VL: DIVLTQSPATLSVTPGDSVSLSCRASQSVSNSLHWYQQKSHESPRLLIMYTSQSISGIPSRFSGSGSGTDFTLSINSVETEDFGMYFCQQSNSWPLTFGAGTKLELK
binds: [10] | [11]

B8: 16B1 anti-human CD27 mouse monoclonal antibody (hybridoma clone) (antibody, V domains shown)
VH: QVQLQQSGPEQVKPGASVKISCKTSGYAFSQSWMNWVKQRPGQGLEWIGRIYPGDGDTNYNGIFKGKATLTADKSSSTAYMQLSSLTSLDSAVYFCASMIRTTYVMDHWGQGTSVTVTS
VL: DIVLTQSPATLSVTPGDSVSLSCRASQSVSNSLHWYQQKSHESPRLLIMYTSQSISGIPSRFSGSGSGTDFTLSINSVETEDFGMYFCQQSNSWPLTFGAGTKLELK
binds: [10] | [11]

B9: 17H8 anti-human CD27 mouse monoclonal antibody (hybridoma clone) (antibody, V domains shown)
VH: EVKLEESGGGLVQPGGSMKLSCVASGFTFSNYWMNWVRQSPEKGLEWVAEIRLKSNNYATYYAESVKGRFTISRDDSKSSVYLQMNSLRGEDTGIYYCTLYDSSYYYAMDYWGQGTSVTVSS
VL: DVVLTQTPLSLPVNIGDQASISCKSTQSLLHSDGFTYLDWYLQKPGQSPQLLIYLVSNRFLGVPDRFSGSGSRTDFTLKISRVEAEDLGVYYCFQSNYLPLTFGGGTKLEI
binds: [10] | [11]
